Laboratory results: PubChem BioAssay AID1259254 (NCATS, 2017)
The deposit covers about 59,000 reagents; shown is an unselected part. About 1,550 of them (2.6%) count as active. 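G2 share is only a proxy for re-replication; each gene was hit by three separate siRNAs, and active genes were retested.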 A number with no mark means an inactive call. The numbers tell different reagents against one gene apart. Further read-outs or replicates are left out here. No sequences are given here. Not given: the amount of reagent.

Test: 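Finding genes that stop cells copying their DNA twice in one cycle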 (primary screen)
System: human HCT116 colorectal cancer cells
Knock-down reagent: single siRNA against human genes
Time to read-out: 3 days
Read-out: 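Nuclei stained with Hoechst and imaged; cell-cycle phase assigned by DNA content; G2 share scaled per plate, non-targeting siRNA 0%, GMNN siRNA 100%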
Scale: G2 robust z-score and G2 cells, % of GMNN control: higher = more G2 cells, more excess DNA replication
Rule for the call: 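Active siRNAs have a G2 robust z of 5 or more median absolute deviations over the median, which in these data means about 38% or higher of GMNN control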

Against CLCN3 (Cl-/H+ antiporter 3) #1 the deposit lists G2 robust z-score 3.09; G2 cells, % of GMNN control 24.7.
For CLCN3 (Cl-/H+ antiporter 3) #2, the entry reads G2 robust z-score -1.16; G2 cells, % of GMNN control -5.18.
With knock-down of CLCN3 (Cl-/H+ antiporter 3) #3, the record shows G2 robust z-score -0.56; G2 cells, % of GMNN control -0.974.
CDKL4 (cyclin dependent kinase like 4) #1 scored G2 robust z-score 0.254; G2 cells, % of GMNN control 4.76.
Against CDKL4 (cyclin dependent kinase like 4) #2, the entry reads G2 robust z-score -0.382; G2 cells, % of GMNN control 0.283.
Against CDKL4 (cyclin dependent kinase like 4) #3, the values are G2 robust z-score -1.11; G2 cells, % of GMNN control -4.84.
AKAP5 (A-kinase anchoring protein 5) #1 gave G2 robust z-score -0.341; G2 cells, % of GMNN control 0.571.
With knock-down of AKAP5 (A-kinase anchoring protein 5) #2 the results were G2 robust z-score 0.547; G2 cells, % of GMNN control 6.82.
For AKAP5 (A-kinase anchoring protein 5) #3, the values are G2 robust z-score 0.362; G2 cells, % of GMNN control 5.51.
RPL6P31 (ribosomal protein L6 pseudogene 31) #1 scored G2 robust z-score 1.02; G2 cells, % of GMNN control 10.1.
For RPL6P31 (ribosomal protein L6 pseudogene 31) #2, the values are G2 robust z-score 0.91; G2 cells, % of GMNN control 9.37.
For RPL6P31 (ribosomal protein L6 pseudogene 31) #3, the values are G2 robust z-score -0.863; G2 cells, % of GMNN control -3.1.
Depletion of CPOX (coproporphyrinogen oxidase) #1 gave: G2 robust z-score 0.189; G2 cells, % of GMNN control 4.3.
CPOX (coproporphyrinogen oxidase) #2 scored G2 robust z-score 0.856; G2 cells, % of GMNN control 8.99.
CPOX (coproporphyrinogen oxidase) #3 gave G2 robust z-score -1; G2 cells, % of GMNN control -4.09.

A portion from the list above, for reference:
CDKL4 (cyclin dependent kinase like 4) #2 | G2 robust z-score = -0.382; G2 cells, % of GMNN control = 0.283
CDKL4 (cyclin dependent kinase like 4) #3 | G2 robust z-score = -1.11; G2 cells, % of GMNN control = -4.84
AKAP5 (A-kinase anchoring protein 5) #1 | G2 robust z-score = -0.341; G2 cells, % of GMNN control = 0.571

The list goes on.
GNAI1 (G protein subunit alpha i1) #1 showed G2 robust z-score 0.991; G2 cells, % of GMNN control 9.94.
Knock-down of GNAI1 (G protein subunit alpha i1) #2 resulted in: G2 robust z-score 0.903; G2 cells, % of GMNN control 9.32.
After knock-down of GNAI1 (G protein subunit alpha i1) #3, the screen gave G2 robust z-score -0.476; G2 cells, % of GMNN control -0.38.
Against CTNND1 (catenin delta 1) #1 the deposit lists G2 robust z-score 0.767; G2 cells, % of GMNN control 8.36.
After knock-down of CTNND1 (catenin delta 1) #2, the screen gave G2 robust z-score -0.052; G2 cells, % of GMNN control 2.6.
CTNND1 (catenin delta 1) #3 scored G2 robust z-score 0.212; G2 cells, % of GMNN control 4.46.
TSPAN9 (tetraspanin 9) #1 gave G2 robust z-score -0.207; G2 cells, % of GMNN control 1.51.
With knock-down of TSPAN9 (tetraspanin 9) #2 the results were G2 robust z-score -0.203; G2 cells, % of GMNN control 1.54.
Silencing of TSPAN9 (tetraspanin 9) #3 came out at: G2 robust z-score 0.98; G2 cells, % of GMNN control 9.86.
Silencing of NUDT6 (nudix hydrolase 6) #1 resulted in: G2 robust z-score -0.924; G2 cells, % of GMNN control -3.53.
Depletion of NUDT6 (nudix hydrolase 6) #2 resulted in: G2 robust z-score 1.11; G2 cells, % of GMNN control 10.8.
Against NUDT6 (nudix hydrolase 6) #3, the entry reads G2 robust z-score -0.125; G2 cells, % of GMNN control 2.09.
Silencing of LRP1B (LDL receptor related protein 1B) #1 resulted in: G2 robust z-score 0.605; G2 cells, % of GMNN control 7.22.
Depletion of LRP1B (LDL receptor related protein 1B) #2 gave: G2 robust z-score -0.555; G2 cells, % of GMNN control -0.934.
For LRP1B (LDL receptor related protein 1B) #3 the deposit lists G2 robust z-score -1.07; G2 cells, % of GMNN control -4.56.
